Assay: general procedure: solution-phase peptide synthesis
Conditions: coupling step

| Substance | step yield |
| --- | --- |
| L-Dolavalyl-L-Valyl-N-Methyl-(S,S,R)-Dolaisoleuinyl-(S,R,R)-Dolaproinyl-L- Isoleucine N-3-Quinoline Amide | 81% |
| L-Dolavalyl-L-Valyl-N-Methyl-(S,S,R)-Dolaisoleuinyl-(S,R,R)-Dolaproinyl-L- (p-Chloro)phenylalanine N-2-(6-Chloro)benzothiazole Amide | 56% |
| L-Dolavalyl-L-Valyl-N-Methyl-(S,S,R)-Dolaisoleuinyl-(S,R,R)-Dolaproinyl-L- Methionine N-2-Pyridyl Amide | 77% |
| L-Dolavalyl-L-Valyl-N-Methyl-(S,S,R)-Dolaisoleuinyl-(S,R,R)-Dolaproinyl-L- Phenylalanine N-4-Chlorophenyl Amide | 93% |
| L-Dolavalyl-L-Valyl-N-Methyl-(S,S,R)-Dolaisoleuinyl-(S,R,R)-Dolaproinyl-L- Phenylalanine N-2,5-Dichlorophenyl Amide | 46% |
| L-Dolavalyl-L-Valyl-N-Methyl-(S,S,R)-Dolaisoleuinyl-(S,R,R)-Dolaproinyl-L- Methionine N-3-Quinoline Amide | 95% |
| L-Dolavalyl-L-Valyl-N-Methyl-(S,S,R)-Dolaisoleuinyl-(S,R,R)-Dolaproinyl-L- Methionine N-2-Benzothiazole Amide | 87% |
| L-Dolavalyl-L-Valyl-N-Methyl-(S,S,R)-Dolaisoleuinyl-(S,R,R)-Dolaproinyl-L- Phenylalanine N-2-(6-Chloro)benzothiazole Amide | 83% |
| L-Dolavalyl-L-Valyl-N-Methyl-(S,S,R)-Dolaisoleuinyl-(S,R,R)-Dolaproinyl-L- Proline N-3-Quinoline Amide | 82% |
| L-Dolavalyl-L-Valyl-N-Methyl-(S,S,R)-Dolaisoleuinyl-(S,R,R)-Dolaproinyl-L- Proline N-2-Benzothiazole Amide | 80% |
| L-Dolavalyl-L-Valyl-N-Methyl-(S,S,R)-Dolaisoleuinyl-(S,R,R)-Dolaproinyl-L- Phenylalanine N-2-(6-Fluoro)benzothiazole Amide | 58% |
| L-Dolavalyl-L-Valyl-N-Methyl-(S,S,R)-Dolaisoleuinyl-(S,R,R)-Dolaproinyl-L- Methionine N-2-Chlorophenyl Amide | 89% |
| L-Dolavalyl-L-Valyl-N-Methyl-(S,S,R)-Dolaisoleuinyl-(S,R,R)-Dolaproinyl-L- Methionine N-1-(2-p-Chlorophenylethyl) Amide | 77% |
| L-Dolavalyl-L-Valyl-N-Methyl-(S,S,R)-Dolaisoleuinyl-(S,R,R)-Dolaproinyl-L- Phenylalanine N-3-Chlorophenyl Amide | 77% |
| L-Dolavalyl-L-Valyl-N-Methyl-(S,S,R)-Dolaisoleuinyl-(S,R,R)-Dolaproinyl-L- Methionine N-4-Chlorophenyl Amide | 79% |
| L-Dolavalyl-L-Valyl-N-Methyl-(S,S,R)-Dolaisoleuinyl-(S,R,R)-Dolaproinyl-L- Methionine N-2,5-Dichlorophenyl Amide | 87% |
| L-Dolavalyl-L-Valyl-N-Methyl-(S,S,R)-Dolaisoleuinyl-(S,R,R)-Dolaproinyl-L- Methionine N-3-Chlorophenyl Amide | 88% |

Reference: patent US5663149A (priority 1994, dated 1997)
